The structures appear in SMILES notation. Like-named read-outs stand apart in the source and are kept apart here.

The format of the series is in vivo, human. To be noted: for Aftertaste: 5 minutes after inhalation; for Taste: 2 volunteers. As to the method:
The following solution strengths were prepared for taste evaluation: (1) diltiazem hydrochloride—50 mg/ml solution in distilled water; and (2) flecainide acetate—30 mg/ml solution in distilled water.
The Aeroneb®GO device was used because it is a simple-to-use device developed specifically for patients who require respiratory therapy in and away from the home. The device can be used by patients of all ages (infant through adult) and aerosolizes solutions intended for inhalation. Aeroneb® Go works with either an AC wall controller or a battery pack, and can be cleaned with soap and water. More details about this device can be obtained at www.aerogen.com.
Number of subjects: 2 healthy male volunteers
Water was poured into the nebulizer cup, and the nebulizer was turned on. The visible cloud of aerosol generated when the nebulizer was turned on was treated as a qualitative aerosol standard.
About 1 ml of the 30 mg/ml solution was poured into the cup of the nebulizer. The nebulizer was turned on and the resulting aerosol was similar to but not as dense as the aerosol formed with the water alone.
The nebulizer was then placed in the mouth and switched on. Deep lung inhalation was performed through the nebulizer. About 40 μl (˜1.2 mg of flecainide acetate) of the test solution was inhaled. The inhaled dose was sub-therapeutic in nature as it was much less than the regular 100 mg administered as tablets. Flecainide acetate is also available as an IV injection in Europe as 10 mg/ml strength in 15 ml ampoules.
About 1 ml of the 50 mg/ml solution was poured into the cup of the nebulizer. The nebulizer was turned on and the resulting aerosol was similar to but not as dense as the aerosol formed with the water alone.
The nebulizer was then placed in the mouth and a switched on. Deep lung inhalation was performed through the nebulizer. About 40 μl (˜2 mg of diltiazem hydrochloride) of the test solution was inhaled. The inhaled dose was sub-therapeutic in nature as it was much less than the IV injection marketed in the U.S. as 5 mg/ml in 5 ml vials.

Take `COc1ccc([C@@H]2Sc3ccccc3N(CCN(C)C)C(=O)[C@@H]2OC(C)=O)cc1.Cl` [diltiazem, diltiazem hydrochloride]: the Aftertaste entry (about 40 μl of 50 mg/ml solution (~2 mg)) is reported as “none to little aftertaste”. The Taste entry (about 40 μl of 50 mg/ml solution (~2 mg) inhaled by nebulizer) is listed as “Mildly bitter taste felt in the back of the tongue”.

As for `O=C(NCC1CCCCN1)c1cc(OCC(F)(F)F)ccc1OCC(F)(F)F` (stereo not shown) [flecainide, flecainide acetate], the Aftertaste entry (about 40 μl of 30 mg/ml solution (~1.2 mg)) is given as “none to little aftertaste”. Moreover, the Taste result (about 40 μl of 30 mg/ml solution (~1.2 mg) inhaled by nebulizer) is “Mildly bitter taste felt in the back of the tongue”.

The values above are taken from patent US10045939B2, “Unit doses, aerosols, kits, and methods for treating heart conditions by pulmonary administration” (InCarda Therapeutics, Inc., priority 2009, dated 2018).
